Laboratory results taken from US12662542B2, “Agnostic anti-mullerian hormone receptor binding peptides” (OVARES D LLC, priority 2019, dated 2026).
Part of at least one peptide drawing is inferred or uncertain, most often the ends. Square brackets hold non-standard residues; d marks the D form. Peptide text beside a SMILES is read from it.

Biological target: T1, AMH-R2 (Homo sapiens, UniProt Q16671)
T1 construct: GST
T1 sequence (Q16671 18-573): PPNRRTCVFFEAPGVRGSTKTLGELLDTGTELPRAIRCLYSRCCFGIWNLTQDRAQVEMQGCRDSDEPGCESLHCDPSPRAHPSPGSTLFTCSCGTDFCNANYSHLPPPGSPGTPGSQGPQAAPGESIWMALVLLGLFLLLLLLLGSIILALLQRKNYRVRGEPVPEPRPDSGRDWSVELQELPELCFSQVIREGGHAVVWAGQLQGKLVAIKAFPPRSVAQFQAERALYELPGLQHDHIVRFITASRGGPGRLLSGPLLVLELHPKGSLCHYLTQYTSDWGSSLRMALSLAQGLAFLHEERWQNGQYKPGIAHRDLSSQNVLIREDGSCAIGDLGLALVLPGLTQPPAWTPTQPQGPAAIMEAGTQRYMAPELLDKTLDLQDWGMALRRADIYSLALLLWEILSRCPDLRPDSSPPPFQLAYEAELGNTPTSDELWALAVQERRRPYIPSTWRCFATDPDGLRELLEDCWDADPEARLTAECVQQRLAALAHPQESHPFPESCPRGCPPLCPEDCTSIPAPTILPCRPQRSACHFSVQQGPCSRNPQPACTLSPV
Assay: peptide microarray assay identifying AMH receptor binding peptides
Conditions: microarray signal
From the text: In view of the several actions of AMH, and because of the need for AMH receptor agonists and/or antagonist that can modify the activity of one or more of the AMH receptors, provided herein are AMH receptor binding peptides that modulate the activity of the AMH receptor, as described herein. Briefly, it was hypothesized that peptides that bind AMH receptors could be generated based on the amino acid sequence of the AMH biding site of the AMH-R2 receptor. More particularly, based on the amino acid sequence of the AMH-R2 that is responsible for binding AMH, as well as the amino acid sequences of AMH-R2 that are near the AMH binding site, a peptide microarray was used to identify candidate AMH receptor binding peptides that can activate AMH-R2 and thus produce similar effects to native AMH.
To identify candidate AMH receptor binding peptides described herein, a custom peptide library composed of replicate copies of a 124,000 17 mer peptide microarray was synthesized (Arizona State University, Tempe, AZ) using the method described in Legutki, J. B., et al., Scalable high-density peptide arrays for comprehensive health monitoring. Nat Commun., volume 5, 4785 (2014). The slide was assembled into an Arrayit 4×24 Hybridization Cassette and each peptide microarray was blocked with 150 uL of 30% human sera in 1×PBST for 1 hour at room temperature with shaking After blocking, the slide was washed 3× with 1×PBST using a Biotek plate washer prior to addition of protein targets. Each protein sample was diluted in 30% human sera in 1×PBST and 150 uL of each sample was dispensed into the appropriate wells in the cassette and incubated for 1 hour at 37 C with rotation at 300 rpm on a ThermoMix™ 500 heater/shaker.
After incubation, the cassette was dismantled, the slide washed 3 times in 1×PBST, rinsed three times with distilled, deionized water (ddH2O), and dried in a centrifuge for 2 minutes at 800 rpm. Secondary antibody (anti-GST, GE Healthcare™) was prepared at 10 nM in 30% human sera in 1×PBST and dispensed onto the slide. The slide was incubated for 1 hour at 37 C with rotation at 300 rpm as before. The slide was then washed 3 times in 1×PBST, rinsed 3 times with ddH2O, and dried in a centrifuge for 2 minutes at 800 rpm. Detection antibody, 10 nM Alexa Flour 647 donkey anti-goat IgG (H+L) (ThermoFisher Scientific™), was prepared in 0.75% casein in 1×PBST and dispensed onto the slide. The slide was covered and incubated for 1 hour at 37 C with rotation as before. The slide was washed 3 times in 1×PBST, rinsed 3 times with ddH2O, and dried in a centrifuge for 2 minutes at 800 rpm. The slide was scanned on an Innopsys™ Inoscan 910AL scanner and the resulting TIFF files were analyzed using the Genepix™ Pro 6.0 software. Data files were exported and analyzed using Microsoft Excel™ and JMP™ software.

CC(C)C[C@@H](NC(=O)[C@@H](C)NC(=O)[C@@H](NC(=O)CNC(=O)[C@H](CO)NC(=O)[C@@H](NC(=O)[C@@H](CCCNC(=N)N)NC(=O)[C@H](Cc1ccccc1)NC(=O)[C@H](CCC(N)=O)NC(=O)[C@H](CC(N)=O)NC(=O)[C@H](Cc1ccc(O)cc1)NC(=O)[C@H](C)NC(=O)[C@H](CC(N)=O)NC(=O)[C@H](CO)NC(=O)CNC(=O)[C@@H](N)C(C)C)C(C)C)C(C)C)C(=O)N[C@@H](CO)C(=O)O [SEQ ID NO: 1, VGSNAYNQFrVSGValS] (H-VGSNAYNQF[dR]VSGV[dA][dL]S-OH)
65535: Average (average of Rep 1 and Rep 2) | Rep 1 (replicate 1) | Rep 2 (replicate 2)
